Experimental data: US11167015B2, “Arginine and its use as a T cell modulator” (INSTITUTE FOR RESEARCH IN BIOMEDICINE, priority 2016, dated 2021)
At least one compound was matched to its structure with a doubt left.

Assays:
activated CD4+ T cells = assay: IL-2 withdrawal assay and assessment of cell viability, CD4+ T cells; type: cell-based, human; details: 100 nM rapamycin
Method: Naïve CD4 T cells were activated with plate-bound CD3 and CD28 antibodies. 48 h after activation IL-2 was added to culture media (500 U ml^−1). After a further 3 days of culturing, cells were washed, counted and equal cell numbers were plated in medium devoid of IL-2. The withdrawal medium was no longer supplemented with e.g. L-arginine. Cell viability was assessed with annexin V.

human naïve CD4+ T cells = assay: kinetic metabolome analysis of activated T cells; type: cell-based; details: 100 nM rapamycin

## CO[C@H]1C[C@@H]2CC[C@@H](C)[C@@](O)(O2)C(=O)C(=O)N2CCCC[C@H]2C(=O)O[C@H]([C@H](C)C[C@@H]2CC[C@@H](O)[C@H](OC)C2)CC(=O)[C@H](C)/C=C(\C)[C@@H](O)[C@@H](OC)C(=O)[C@H](C)C[C@H](C)/C=C/C=C/C=C/1C [rapamycin, reference compound]
Activated CD4+ T cells
  T cell survival: enhancing T cell survival
Human naïve CD4+ T cells
  effect on metabolism: affected metabolism in an entirely different way than L-arginine
